Experimental data from patent publication US20240139167A1, “LYSOSOME-ASSOCIATED MEMBRANE PROTEIN TARGETING COMPOUNDS AND USES THEREOF” (HADASIT MEDICAL RESEARCH SERVICES AND DEVELOPMENT LTD., priority 2021, published 2024).

System: APBD patient fibroblast protein homogenates
Assay: Target identification by nematic protein organization technique (NPOT)
Set-up: species or system human

SMILES: COCCN(Cc1sccc1C)C(=O)c1cc(C)nc(O)c1 [Compound 1]
- number of interacting proteins belonging to the autophagosomal-autolysosomal pathway: 8
- number of proteins found to interact specifically (10^−6 M): 28
